{"sequences": {"note": "The chains behind the UniProt entries cited, without tags or fusion partners. Where a name states a change or a piece, a line headed by the entry shows the natural chain unless it says otherwise.", "UniProt P29597": "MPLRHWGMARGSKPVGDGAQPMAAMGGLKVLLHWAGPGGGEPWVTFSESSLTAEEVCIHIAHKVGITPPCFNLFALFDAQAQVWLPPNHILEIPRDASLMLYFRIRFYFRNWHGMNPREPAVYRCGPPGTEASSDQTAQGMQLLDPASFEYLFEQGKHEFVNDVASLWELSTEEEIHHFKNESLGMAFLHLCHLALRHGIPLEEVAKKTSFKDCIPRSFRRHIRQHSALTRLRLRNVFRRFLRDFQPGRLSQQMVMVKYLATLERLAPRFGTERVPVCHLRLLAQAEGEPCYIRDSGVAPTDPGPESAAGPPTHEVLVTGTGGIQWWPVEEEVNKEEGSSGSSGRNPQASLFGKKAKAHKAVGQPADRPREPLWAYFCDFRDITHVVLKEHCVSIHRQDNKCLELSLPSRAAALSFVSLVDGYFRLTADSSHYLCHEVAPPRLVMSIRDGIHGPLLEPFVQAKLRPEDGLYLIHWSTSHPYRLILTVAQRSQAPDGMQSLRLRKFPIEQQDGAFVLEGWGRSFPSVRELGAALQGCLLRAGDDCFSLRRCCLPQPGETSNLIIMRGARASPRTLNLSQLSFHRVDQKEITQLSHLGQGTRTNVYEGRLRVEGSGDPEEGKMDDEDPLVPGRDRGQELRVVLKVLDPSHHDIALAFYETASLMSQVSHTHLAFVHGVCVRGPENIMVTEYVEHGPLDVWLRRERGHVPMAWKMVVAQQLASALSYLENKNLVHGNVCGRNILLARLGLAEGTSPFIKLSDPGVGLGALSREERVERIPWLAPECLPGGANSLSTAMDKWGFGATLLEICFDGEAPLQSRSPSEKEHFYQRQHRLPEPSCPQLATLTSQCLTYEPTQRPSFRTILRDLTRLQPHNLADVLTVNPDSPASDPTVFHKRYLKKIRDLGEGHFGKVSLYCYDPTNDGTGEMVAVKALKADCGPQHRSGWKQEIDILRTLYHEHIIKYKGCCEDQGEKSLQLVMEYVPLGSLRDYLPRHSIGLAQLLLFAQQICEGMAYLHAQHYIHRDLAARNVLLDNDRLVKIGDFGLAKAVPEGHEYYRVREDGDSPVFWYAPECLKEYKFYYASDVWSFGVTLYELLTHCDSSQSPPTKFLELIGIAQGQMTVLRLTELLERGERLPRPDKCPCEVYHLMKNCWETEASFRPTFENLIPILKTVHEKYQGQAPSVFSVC"}, "source": "the supplement of paper PMC12823440", "about": "“Inhibitors supercharge kinase turnover through native proteolytic circuits” (Nature, 2025)", "note": "Structures can show the parent of a compound that is named as a salt. This is one part of the list. The calls rarely recur for the same compound in another form.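 In K562 cells expressing nanoluciferase-fused kinases, luminescence was recorded at 4 h intervals between 2 and 18 h, normalized as percent of control with DMSO at 100% and a positive control at 0%. A significant (2 sigma) signal drop marks a time point as decreased. The authors' rule for a hit is not shown and takes in more than the number of time points.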"}
{"biological_target": "TYK2 (UniProt P29597)", "assay": "number of time points (of 5) at which kinase-Nluc abundance scored as decreased, DMSO-normalised (count); higher = more persistent destabilization", "conditions": "K562; 2-18 h"}
{"smiles": "Cn1cc(-c2cc(Oc3cc(F)c(NC(=O)C4(C(=O)Nc5ccccc5)CC4)cc3F)ccn2)cn1", "note": "(2.5 µM)", "number of time points": 0}
{"smiles": "Nc1[nH]nc2nc(-c3ccc(NS(=O)(=O)c4cc(Cl)ccc4Cl)cc3)cnc12", "note": "(10 µM)", "number of time points": 0}
{"smiles": "Cc1cccc(/C=N/Nc2cc(N3CCOCC3)n3nc(-c4ccncc4)cc3n2)c1", "note": "(10 µM)", "number of time points": 1}
{"smiles": "CC(C)n1ncnc1-c1cn2c(n1)-c1ccc(O[C@@H](C)C(N)=O)cc1OCC2", "note": "(10 µM)", "number of time points": 0}
{"smiles": "COC(=O)[C@H](CCSC)NC(=O)c1ccc(NC[C@@H](N)CS)cc1-c1ccccc1", "note": "[FTI-277 (hydrochloride)] (10 µM)", "number of time points": 0}
{"smiles": "O=C(Nc1cccc(-c2nc(-c3ccc(NC(=O)c4cccnc4)cc3Cl)no2)c1)Nc1ccc(NC(=O)C2CC2)c(C(F)(F)F)c1", "note": "(2.5 µM)", "number of time points": 0}
{"smiles": "CN1CCN(c2cc(-c3ccncc3)c(-c3ccc4ccccc4c3)nn2)CC1", "note": "(10 µM)", "number of time points": 0}
{"smiles": "CNC(=O)c1ccc2c(c1)ncn2-c1ccc(CC(=O)OC(C)(C)C)cc1", "note": "(10 µM)", "number of time points": 0}
{"smiles": "O=C(O)[C@H]1O[C@@H](Oc2cc3oc(-c4ccc(O)cc4)cc(=O)c3c(O)c2O)[C@H](O)[C@@H](O)[C@@H]1O", "note": "[Scutellarin] (10 µM)", "number of time points": 0}
{"smiles": "Cc1nn(C)cc1-c1nc2c(N3CCN(Cc4ccc(Cl)cc4)CC3)c(Cl)cnc2[nH]1", "note": "(10 µM)", "number of time points": 0}
{"smiles": "Cc1cc(CSc2ccccc2C(=O)NCCNc2ccc(C(F)(F)F)cc2[N+](=O)[O-])on1", "note": "(10 µM)", "number of time points": 0}
{"smiles": "NC(=O)c1cnc(-c2ccc(C3(N)CCC3)cc2)c(-c2ccccc2)c1", "note": "(10 µM)", "number of time points": 0}
{"smiles": "CCCCCC(=O)N[C@@H](Cc1ccc(O)cc1)C(=O)OC", "note": "(10 µM)", "number of time points": 0}
{"smiles": "CNC(=O)c1ccc2c(C(=Nc3cccc(CN(C)C)c3)c3ccccc3)c(O)[nH]c2c1", "note": "[MEK inhibitor] (10 µM)", "number of time points": 0}
{"smiles": "COc1cc2ncnc(Nc3cccc(I)c3)c2cc1OC", "note": "(2.5 µM)", "number of time points": 0}
{"smiles": "COc1c(O)cc2oc(-c3ccc(O)cc3)cc(=O)c2c1O", "note": "[Hispidulin] (10 µM)", "number of time points": 0}
{"smiles": "CC(C)=CC[C@@H](O)C1=CC(=O)c2c(O)ccc(O)c2C1=O", "note": "[Shikonin] (10 µM)", "number of time points": 0}
{"smiles": "N[C@@H]1CCCN(c2c(/C=C3\\SC(=O)NC3=O)cccc2-c2ccccc2)C1", "note": "(10 µM)", "number of time points": 0}
{"smiles": "NC(=O)c1ccc(N(C(N)=O)c2c(F)cccc2F)nc1-c1ccc(F)cc1F", "note": "(10 µM)", "number of time points": 0}
{"smiles": "NC1(C(=O)NCCCn2cc(-c3ccc(OC(F)(F)F)cc3)c3cc(CN4CCN(Cc5c(Cl)cccc5Cl)CC4)ccc32)CCNCC1", "note": "(2.5 µM)", "number of time points": 0}
{"smiles": "Cc1cc(O)c2c(c1)C(=O)c1cccc(O)c1C2=O", "note": "[Chrysophanol] (2 µM)", "number of time points": 0}
{"smiles": "COc1cc2nccc(Oc3ccc(NC(=O)c4cn(C(C)C)c(=O)n(-c5ccc(F)cc5)c4=O)cc3F)c2cc1OC", "note": "(0.5 µM)", "number of time points": 2}
{"smiles": "O=C(Nc1cccnc1)c1cc(-c2ccnc(F)c2)ccc1OCc1ccccc1", "note": "(10 µM)", "number of time points": 0}
{"smiles": "NC[C@@](O)(c1ccc(Cl)cc1)c1ccc(-c2cn[nH]c2)cc1", "note": "(10 µM)", "number of time points": 0}
{"smiles": "O=C1NC(=O)/C(=C\\c2c[nH]c(=O)c(-c3ccc(N4CCNCC4)nc3)c2)S1", "note": "[Protein kinase inhibitors 1 hydrochloride] (10 µM)", "number of time points": 0}
{"smiles": "C[C@@H](Nc1ncnc2[nH]c(-c3ccc(O)cc3)cc12)c1ccccc1", "note": "(2.5 µM)", "number of time points": 0}
{"smiles": "Cc1ccc(C(=O)NC2CC2)cc1-n1ncc(C(=O)c2cccc(C#N)c2)c1N", "note": "[Acumapimod] (10 µM)", "number of time points": 0}
{"smiles": "C[C@H]1O[C@@H](O[C@H]2CC[C@@]3(C)[C@@H](CC[C@]4(C)[C@@H]3C=C[C@]35OC[C@@]6(CCC(C)(C)C[C@H]63)[C@H](O)C[C@]54C)[C@]2(C)CO)[C@H](O)[C@@H](O[C@@H]2O[C@H](CO)[C@@H](O)[C@H](O)[C@H]2O)[C@H]1O", "note": "[Saikosaponin D] (2.5 µM)", "number of time points": 3}
{"smiles": "N#Cc1ccc(-c2cnc3[nH]cc(NC(=O)c4cccnc4)c3c2)cc1", "note": "(10 µM)", "number of time points": 0}
{"smiles": "CCCCCc1ccc(/C=C/[C@H](O)[C@@H](CO)NC)cc1", "note": "[SK1-I (hydrochloride)] (10 µM)", "number of time points": 0}
{"smiles": "COc1ccc2c3n(c(=NC(=O)c4cccnc4)nc2c1OC)CCN3", "note": "(2 µM)", "number of time points": 0}
{"smiles": "CN1CCN(c2ccc(Nc3ncc4cc(C#N)c(=O)n(C5CCCC5)c4n3)cc2)CC1", "note": "(10 µM)", "number of time points": 0}
